The other results are listed elsewhere or left out. The calls rarely recur for the same compound in another form.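 In K562 cells expressing nanoluciferase-fused kinases, luminescence was recorded at 4 h intervals between 2 and 18 h, normalized as percent of control with DMSO at 100% and a positive control at 0%. A significant (2 sigma) signal drop marks a time point as decreased. The authors' rule for a hit is not shown and takes in more than the number of time points.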
Columns and labels:
Experiment in all cases: number of time points (of 5) at which kinase-Nluc abundance scored as decreased, DMSO-normalised (count); higher = more persistent destabilization
[1] = compound: CC(=O)Nc1cccc(-n2c(=O)n(C3CC3)c(=O)c3c(Nc4ccc(I)cc4F)n(C)c(=O)c(C)c32)c1 [Trametinib]; details: 10 µM; K562; 2-18 h
[2] = compound: CC(=O)c1c(C)c2cnc(Nc3ccc(N4CCNCC4)cn3)nc2n(C2CCCC2)c1=O [Palbociclib (isethionate)]; details: 10 µM; K562; 2-18 h
[3] = compound: CC(=O)c1c(C)c2cnc(Nc3ccc(N4CCNCC4)cn3)nc2n(C2CCCC2)c1=O [Palbociclib (monohydrochloride)]; details: 10 µM; K562; 2-18 h
[4] = compound: CC(C)(C)n1nc(-c2cccc3ccccc23)c2c(N)ncnc21 [1-Naphthyl PP1 (hydrochloride)]; details: 10 µM; K562; 2-18 h
[5] = compound: CC(C)(C)n1nc(-c2cccc3ccccc23)c2c(N)ncnc21 [1-Naphthyl PP1]; details: 10 µM; K562; 2-18 h
[6] = compound: CC(C)NC[C@@H](C(=O)N1CCN(c2ncnc3c2[C@H](C)C[C@H]3O)CC1)c1ccc(Cl)cc1 [Ipatasertib (dihydrochloride)]; details: 10 µM; K562; 2-18 h
[7] = compound: CC(C)NC[C@@H](C(=O)N1CCN(c2ncnc3c2[C@H](C)C[C@H]3O)CC1)c1ccc(Cl)cc1 [Ipatasertib]; details: 10 µM; K562; 2-18 h
[8] = compound: CC(C)Nc1cc(-c2c[nH]c(C(=O)N[C@H](CO)c3cccc(Cl)c3)c2)c(Cl)cn1 [Ulixertinib (hydrochloride)]; details: 10 µM; K562; 2-18 h
[9] = compound: CC(C)Nc1cc(-c2c[nH]c(C(=O)N[C@H](CO)c3cccc(Cl)c3)c2)c(Cl)cn1 [Ulixertinib]; details: 10 µM; K562; 2-18 h
[10] = compound: CC(C)Oc1ccc(-c2nn([C@@H](C)c3oc4ccc(F)cc4c(=O)c3-c3cccc(F)c3)c3ncnc(N)c23)cc1F [Umbralisib (hydrochloride)]; details: 2.5 µM; K562; 2-18 h
[11] = compound: CC(C)Oc1ccc(-c2nn([C@@H](C)c3oc4ccc(F)cc4c(=O)c3-c3cccc(F)c3)c3ncnc(N)c23)cc1F [Umbralisib]; details: 2.5 µM; K562; 2-18 h
[12] = compound: CCCC(=O)Nc1ncnc2c1ncn2[C@@H]1O[C@@H]2COP(=O)(O)O[C@H]2[C@H]1OC(=O)CCC [Bucladesine (calcium)]; details: 10 µM; K562; 2-18 h
[13] = compound: CCCC(=O)Nc1ncnc2c1ncn2[C@@H]1O[C@@H]2COP(=O)(O)O[C@H]2[C@H]1OC(=O)CCC [Bucladesine (sodium)]; details: 10 µM; K562; 2-18 h
[14] = compound: CCCCCCCCc1ccc(CCC(N)(CO)CO)cc1 [Fingolimod (hydrochloride)]; details: 2.5 µM; K562; 2-18 h
[15] = compound: CCCCCCCCc1ccc(CCC(N)(CO)CO)cc1 [Fingolimod]; details: 2.5 µM; K562; 2-18 h
[16] = compound: CCN(CC)CC(=O)Nc1c(C)cccc1C [Lidocaine (hydrochloride)]; details: 10 µM; K562; 2-18 h
[17] = compound: CCN(CC)CC(=O)Nc1c(C)cccc1C [Lidocaine]; details: 10 µM; K562; 2-18 h
[18] = compound: CCN(CC)Cc1ccc(OC)c(-c2cc3c(-c4ccc(C(=O)O)c(C(C)C)c4)ccnc3[nH]2)c1; details: K562, 2-18 h
[19] = compound: CCS(=O)(=O)N1CC(CC#N)(n2cc(-c3ncnc4[nH]ccc34)cn2)C1 [Baricitinib (phosphate)]; details: 10 µM; K562; 2-18 h
[20] = compound: CCS(=O)(=O)N1CC(CC#N)(n2cc(-c3ncnc4[nH]ccc34)cn2)C1 [Baricitinib]; details: 10 µM; K562; 2-18 h

Amino acid sequences for entries named in this document (tags omitted). A change or cut given only in a name is not applied to a line headed by its entry.
UniProt P31749: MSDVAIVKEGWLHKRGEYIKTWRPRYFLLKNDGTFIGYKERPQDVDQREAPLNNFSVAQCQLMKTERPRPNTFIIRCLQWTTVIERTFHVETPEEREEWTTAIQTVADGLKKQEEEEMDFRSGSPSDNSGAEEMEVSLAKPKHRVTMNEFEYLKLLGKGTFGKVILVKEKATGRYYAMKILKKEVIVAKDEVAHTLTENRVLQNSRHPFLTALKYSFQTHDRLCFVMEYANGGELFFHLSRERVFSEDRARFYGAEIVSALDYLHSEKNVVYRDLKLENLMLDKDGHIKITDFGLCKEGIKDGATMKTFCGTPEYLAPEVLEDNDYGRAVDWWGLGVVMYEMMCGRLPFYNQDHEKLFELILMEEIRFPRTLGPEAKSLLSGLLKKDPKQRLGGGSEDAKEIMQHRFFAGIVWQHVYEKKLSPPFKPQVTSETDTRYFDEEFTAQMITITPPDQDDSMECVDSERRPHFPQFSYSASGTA
UniProt Q9Y6E0: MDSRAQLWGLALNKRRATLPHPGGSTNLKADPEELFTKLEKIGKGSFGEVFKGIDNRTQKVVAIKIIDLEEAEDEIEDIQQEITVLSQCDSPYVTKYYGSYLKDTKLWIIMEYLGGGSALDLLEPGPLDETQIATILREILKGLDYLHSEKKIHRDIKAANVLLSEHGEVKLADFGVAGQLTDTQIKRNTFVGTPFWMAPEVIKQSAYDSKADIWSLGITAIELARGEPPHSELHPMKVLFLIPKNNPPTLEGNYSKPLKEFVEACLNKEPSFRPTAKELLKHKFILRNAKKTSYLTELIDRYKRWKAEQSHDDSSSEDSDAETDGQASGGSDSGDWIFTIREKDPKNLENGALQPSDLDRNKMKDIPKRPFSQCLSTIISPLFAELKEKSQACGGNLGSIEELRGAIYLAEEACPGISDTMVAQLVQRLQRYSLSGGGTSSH
UniProt P41240: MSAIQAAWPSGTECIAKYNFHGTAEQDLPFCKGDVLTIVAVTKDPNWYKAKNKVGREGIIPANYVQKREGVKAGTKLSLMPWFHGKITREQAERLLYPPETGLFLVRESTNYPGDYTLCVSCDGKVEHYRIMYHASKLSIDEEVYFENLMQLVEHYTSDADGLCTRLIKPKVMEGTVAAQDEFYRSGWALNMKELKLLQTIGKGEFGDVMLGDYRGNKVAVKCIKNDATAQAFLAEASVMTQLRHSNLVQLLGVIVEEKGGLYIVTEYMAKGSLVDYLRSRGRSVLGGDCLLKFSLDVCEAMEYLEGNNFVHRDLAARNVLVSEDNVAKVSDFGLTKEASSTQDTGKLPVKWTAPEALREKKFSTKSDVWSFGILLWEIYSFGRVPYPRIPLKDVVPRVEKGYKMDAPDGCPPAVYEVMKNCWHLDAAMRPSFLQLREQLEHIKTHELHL
UniProt P07949, whole entry, looked up: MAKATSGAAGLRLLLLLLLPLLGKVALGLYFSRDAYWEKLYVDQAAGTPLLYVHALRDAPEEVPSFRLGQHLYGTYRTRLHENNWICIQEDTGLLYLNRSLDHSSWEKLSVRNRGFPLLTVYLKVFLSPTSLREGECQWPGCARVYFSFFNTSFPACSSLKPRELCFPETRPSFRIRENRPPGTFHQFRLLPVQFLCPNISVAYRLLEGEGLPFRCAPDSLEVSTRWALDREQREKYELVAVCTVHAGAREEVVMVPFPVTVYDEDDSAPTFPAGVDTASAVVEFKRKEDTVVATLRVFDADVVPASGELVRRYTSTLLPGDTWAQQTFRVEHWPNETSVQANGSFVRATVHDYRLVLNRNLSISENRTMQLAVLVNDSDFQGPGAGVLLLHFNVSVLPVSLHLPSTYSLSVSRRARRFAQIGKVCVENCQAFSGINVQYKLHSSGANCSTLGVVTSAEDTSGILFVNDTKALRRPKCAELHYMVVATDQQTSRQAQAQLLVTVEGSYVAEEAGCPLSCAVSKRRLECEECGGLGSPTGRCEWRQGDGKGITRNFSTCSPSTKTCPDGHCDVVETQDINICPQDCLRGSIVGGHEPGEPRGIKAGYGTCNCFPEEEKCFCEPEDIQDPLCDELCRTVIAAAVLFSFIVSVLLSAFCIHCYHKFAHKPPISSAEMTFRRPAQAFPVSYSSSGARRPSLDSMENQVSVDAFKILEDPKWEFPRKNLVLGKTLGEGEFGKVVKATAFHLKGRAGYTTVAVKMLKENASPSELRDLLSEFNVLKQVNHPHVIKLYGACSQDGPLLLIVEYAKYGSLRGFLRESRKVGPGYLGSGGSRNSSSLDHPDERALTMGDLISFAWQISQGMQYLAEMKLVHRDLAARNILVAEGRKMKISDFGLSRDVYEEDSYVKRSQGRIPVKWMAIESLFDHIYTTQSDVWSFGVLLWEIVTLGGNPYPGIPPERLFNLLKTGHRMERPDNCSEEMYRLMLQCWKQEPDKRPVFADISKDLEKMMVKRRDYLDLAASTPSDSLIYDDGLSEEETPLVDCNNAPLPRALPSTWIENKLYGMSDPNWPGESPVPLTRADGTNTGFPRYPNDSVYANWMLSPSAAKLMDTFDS
UniProt Q00526: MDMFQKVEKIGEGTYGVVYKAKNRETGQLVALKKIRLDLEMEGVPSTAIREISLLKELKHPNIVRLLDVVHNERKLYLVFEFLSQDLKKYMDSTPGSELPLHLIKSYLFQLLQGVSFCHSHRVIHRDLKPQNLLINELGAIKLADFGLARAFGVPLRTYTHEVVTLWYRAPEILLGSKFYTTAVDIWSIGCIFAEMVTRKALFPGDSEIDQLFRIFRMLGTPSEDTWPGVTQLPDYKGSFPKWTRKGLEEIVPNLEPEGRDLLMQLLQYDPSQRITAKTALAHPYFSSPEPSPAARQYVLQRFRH
UniProt P10398: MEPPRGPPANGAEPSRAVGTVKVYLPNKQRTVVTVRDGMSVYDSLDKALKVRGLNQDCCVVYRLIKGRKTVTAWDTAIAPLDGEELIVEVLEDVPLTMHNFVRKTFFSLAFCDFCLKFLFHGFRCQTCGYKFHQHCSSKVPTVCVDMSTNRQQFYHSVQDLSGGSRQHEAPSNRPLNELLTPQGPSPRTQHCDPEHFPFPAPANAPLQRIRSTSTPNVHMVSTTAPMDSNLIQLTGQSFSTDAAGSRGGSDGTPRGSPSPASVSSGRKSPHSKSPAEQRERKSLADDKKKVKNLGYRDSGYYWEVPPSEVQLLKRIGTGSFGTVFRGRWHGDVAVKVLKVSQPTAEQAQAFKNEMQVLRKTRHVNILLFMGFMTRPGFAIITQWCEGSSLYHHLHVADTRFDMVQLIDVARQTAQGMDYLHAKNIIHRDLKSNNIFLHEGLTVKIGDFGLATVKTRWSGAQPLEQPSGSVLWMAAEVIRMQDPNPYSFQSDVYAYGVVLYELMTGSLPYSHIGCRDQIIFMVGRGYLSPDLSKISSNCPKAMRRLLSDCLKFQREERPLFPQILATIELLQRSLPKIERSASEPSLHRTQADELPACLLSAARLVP
UniProt Q9BUB5: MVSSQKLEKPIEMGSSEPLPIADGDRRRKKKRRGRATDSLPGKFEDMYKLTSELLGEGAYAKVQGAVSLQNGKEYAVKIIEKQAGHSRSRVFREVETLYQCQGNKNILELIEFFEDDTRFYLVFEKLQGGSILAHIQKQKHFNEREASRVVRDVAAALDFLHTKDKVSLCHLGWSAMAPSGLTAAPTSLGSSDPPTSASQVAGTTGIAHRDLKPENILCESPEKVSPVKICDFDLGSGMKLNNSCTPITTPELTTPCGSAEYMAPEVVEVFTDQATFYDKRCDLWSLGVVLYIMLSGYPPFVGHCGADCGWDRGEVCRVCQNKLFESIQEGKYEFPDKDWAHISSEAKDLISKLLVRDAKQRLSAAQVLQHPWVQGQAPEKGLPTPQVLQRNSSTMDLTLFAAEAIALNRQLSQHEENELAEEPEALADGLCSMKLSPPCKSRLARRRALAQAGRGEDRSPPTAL
UniProt Q8IWU2: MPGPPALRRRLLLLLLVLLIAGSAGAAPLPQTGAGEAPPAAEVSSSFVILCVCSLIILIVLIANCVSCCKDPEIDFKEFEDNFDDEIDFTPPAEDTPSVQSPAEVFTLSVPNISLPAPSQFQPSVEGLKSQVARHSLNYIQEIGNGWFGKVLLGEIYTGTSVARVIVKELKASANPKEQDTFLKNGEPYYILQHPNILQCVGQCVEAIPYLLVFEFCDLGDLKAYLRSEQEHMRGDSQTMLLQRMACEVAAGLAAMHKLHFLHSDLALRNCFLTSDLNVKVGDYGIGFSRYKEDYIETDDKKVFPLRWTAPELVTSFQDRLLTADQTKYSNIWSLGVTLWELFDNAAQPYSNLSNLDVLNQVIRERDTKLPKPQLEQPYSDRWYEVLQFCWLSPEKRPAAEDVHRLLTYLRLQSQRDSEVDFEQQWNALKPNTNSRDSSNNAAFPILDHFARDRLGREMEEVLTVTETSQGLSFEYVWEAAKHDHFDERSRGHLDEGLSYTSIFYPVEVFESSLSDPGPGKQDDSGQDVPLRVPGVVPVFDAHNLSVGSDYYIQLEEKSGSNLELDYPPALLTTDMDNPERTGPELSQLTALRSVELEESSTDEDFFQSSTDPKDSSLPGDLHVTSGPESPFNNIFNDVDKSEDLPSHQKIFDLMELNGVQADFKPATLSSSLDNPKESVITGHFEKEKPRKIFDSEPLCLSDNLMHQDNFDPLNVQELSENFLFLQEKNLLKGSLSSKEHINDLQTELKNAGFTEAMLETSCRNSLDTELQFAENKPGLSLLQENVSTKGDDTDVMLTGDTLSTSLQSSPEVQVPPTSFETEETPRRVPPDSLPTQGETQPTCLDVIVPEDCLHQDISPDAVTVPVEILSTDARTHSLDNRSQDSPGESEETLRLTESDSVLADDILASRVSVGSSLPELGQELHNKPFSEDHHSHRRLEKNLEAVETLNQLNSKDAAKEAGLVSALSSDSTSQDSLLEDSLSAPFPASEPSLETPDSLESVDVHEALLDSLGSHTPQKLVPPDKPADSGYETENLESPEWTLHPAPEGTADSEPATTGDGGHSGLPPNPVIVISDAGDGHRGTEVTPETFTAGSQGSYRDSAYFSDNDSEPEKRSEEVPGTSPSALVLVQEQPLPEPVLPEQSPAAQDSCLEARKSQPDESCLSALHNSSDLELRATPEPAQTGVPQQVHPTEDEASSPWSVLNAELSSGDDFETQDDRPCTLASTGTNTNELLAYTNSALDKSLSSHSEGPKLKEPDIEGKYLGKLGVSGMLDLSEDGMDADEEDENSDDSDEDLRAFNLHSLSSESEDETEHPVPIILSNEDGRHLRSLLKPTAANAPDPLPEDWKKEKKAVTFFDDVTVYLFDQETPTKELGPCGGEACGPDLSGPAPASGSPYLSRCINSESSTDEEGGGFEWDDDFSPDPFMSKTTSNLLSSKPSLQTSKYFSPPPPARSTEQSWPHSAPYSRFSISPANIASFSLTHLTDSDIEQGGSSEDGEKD
UniProt Q15418, whole entry: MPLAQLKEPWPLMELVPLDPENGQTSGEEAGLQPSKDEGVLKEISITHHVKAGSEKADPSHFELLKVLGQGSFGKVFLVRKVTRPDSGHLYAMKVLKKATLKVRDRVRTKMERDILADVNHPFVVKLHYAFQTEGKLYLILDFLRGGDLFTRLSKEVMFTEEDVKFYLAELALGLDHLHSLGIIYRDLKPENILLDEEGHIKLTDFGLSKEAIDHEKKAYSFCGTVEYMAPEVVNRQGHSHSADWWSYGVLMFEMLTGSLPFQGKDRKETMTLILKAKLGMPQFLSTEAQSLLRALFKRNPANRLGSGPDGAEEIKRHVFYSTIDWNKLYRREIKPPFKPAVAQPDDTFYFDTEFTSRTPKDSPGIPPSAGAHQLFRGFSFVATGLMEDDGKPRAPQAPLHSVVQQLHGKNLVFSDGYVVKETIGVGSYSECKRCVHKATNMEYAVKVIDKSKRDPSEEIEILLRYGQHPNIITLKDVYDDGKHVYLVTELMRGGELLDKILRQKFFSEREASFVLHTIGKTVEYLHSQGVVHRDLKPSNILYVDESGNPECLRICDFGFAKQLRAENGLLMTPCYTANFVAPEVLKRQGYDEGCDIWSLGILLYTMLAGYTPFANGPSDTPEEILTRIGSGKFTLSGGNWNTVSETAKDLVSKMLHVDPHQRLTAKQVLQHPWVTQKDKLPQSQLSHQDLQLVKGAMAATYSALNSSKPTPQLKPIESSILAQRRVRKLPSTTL
UniProt Q9UQB9: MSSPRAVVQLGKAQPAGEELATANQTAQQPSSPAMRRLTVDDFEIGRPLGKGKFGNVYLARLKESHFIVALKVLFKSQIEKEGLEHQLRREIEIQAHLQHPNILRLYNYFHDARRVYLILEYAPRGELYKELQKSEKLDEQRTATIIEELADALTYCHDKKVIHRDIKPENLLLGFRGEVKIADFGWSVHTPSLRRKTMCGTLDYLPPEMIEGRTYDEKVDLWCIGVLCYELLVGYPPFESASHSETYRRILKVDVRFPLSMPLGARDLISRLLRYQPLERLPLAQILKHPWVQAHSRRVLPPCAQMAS

| Target | number of time points [1] | number of time points [2] | number of time points [3] | number of time points [4] | number of time points [5] | number of time points [6] | number of time points [7] | number of time points [8] | number of time points [9] | number of time points [10] | number of time points [11] | number of time points [12] | number of time points [13] | number of time points [14] | number of time points [15] | number of time points [16] | number of time points [17] | number of time points ([18]; 2.5 µM) | number of time points ([18]; 10 µM) | number of time points [19] | number of time points [20] |
| --- | --- | --- | --- | --- | --- | --- | --- | --- | --- | --- | --- | --- | --- | --- | --- | --- | --- | --- | --- | --- | --- |
| FGFR3 (UniProt P22607) | 0 | 0 | 0 | 0 | 0 | 0 | 0 | 0 | 0 | 0 | 0 | 0 | 0 | 0 | 0 | 0 | 0 | 0 | 0 | 0 | 0 |
| RIPK1 (UniProt Q13546) | 0 | 3 | 0 | 0 | 0 | 0 | 0 | 0 | 0 | 0 | 0 | 0 | 0 | 0 | 0 | 0 | 0 | 0 | 0 | 0 | 0 |
| AKT1 (UniProt P31749) | 0 | 0 | 0 | 0 | 0 | 0 | 0 | 0 | 0 | 0 | 0 | 0 | 0 | 0 | 1 | 0 | 0 | 0 | 0 | 0 | 0 |
| EGFR_G719S_T790M (UniProt P00533) | 0 | 3 | 0 | 0 | 0 | 0 | 0 | 0 | 0 | 0 | 0 | 0 | 0 | 0 | 0 | 0 | 0 | 0 | 0 | 0 | 0 |
| ROR2 (UniProt Q01974) | 0 | 0 | 0 | 0 | 0 | 0 | 0 | 0 | 0 | 0 | 0 | 0 | 0 | 0 | 0 | 0 | 0 | 0 | 0 | 0 | 0 |
| LIMK2 (UniProt P53671) | 0 | 0 | 0 | 0 | 0 | 0 | 0 | 0 | 0 | 0 | 0 | 0 | 0 | 0 | 0 | 0 | 0 | 0 | 0 | 0 | 0 |
| STK24 (UniProt Q9Y6E0) | 0 | 0 | 0 | 0 | 0 | 0 | 0 | 0 | 0 | 0 | 0 | 0 | 0 | 0 | 0 | 0 | 0 | 0 | 0 | 0 | 0 |
| ZAP70 (UniProt P43403) | 0 | 0 | 0 | 0 | 0 | 0 | 0 | 0 | 0 | 0 | 0 | 0 | 0 | 0 | 0 | 0 | 0 | 0 | 0 | 0 | 0 |
| CSK (UniProt P41240) | 0 | 0 | 0 | 0 | 0 | 0 | 0 | 0 | 0 | 0 | 0 | 0 | 0 | 0 | 0 | 0 | 0 | 0 | 0 | 0 | 0 |
| RET (UniProt P07949) | 0 | 0 | 0 | 0 | 0 | 0 | 0 | 0 | 0 | 0 | 0 | 0 | 0 | 0 | 0 | 0 | 0 | 0 | 0 | 0 | 0 |
| RIPK2 (UniProt O43353) | 0 | 0 | 0 | 0 | 0 | 0 | 0 | 0 | 0 | 0 | 0 | 0 | 0 | 0 | 0 | 0 | 0 | 1 | 1 | 0 | 0 |
| CAMK2A (UniProt Q9UQM7) | 0 | 0 | 0 | 0 | 0 | 0 | 0 | 0 | 0 | 0 | 0 | 0 | 0 | 0 | 0 | 0 | 0 | 0 | 0 | 0 | 0 |
| CDK3 (UniProt Q00526) | 0 | 0 | 0 | 0 | 0 | 0 | 0 | 0 | 0 | 0 | 0 | 0 | 0 | 0 | 0 | 0 | 0 | 0 | 0 | 0 | 0 |
| ARAF (UniProt P10398) | 0 | 0 | 0 | 0 | 0 | 0 | 0 | 0 | 0 | 0 | 0 | 0 | 0 | 0 | 0 | 0 | 0 | 0 | 0 | 0 | 0 |
| MKNK1 (UniProt Q9BUB5) | 0 | 0 | 0 | 0 | 0 | 0 | 0 | 0 | 0 | 0 | 0 | 0 | 0 | 0 | 0 | 0 | 0 | 0 | 0 | 0 | 0 |
| MAPK4 (UniProt P31152) | 0 | 0 | 0 | 0 | 0 | 0 | 0 | 0 | 0 | 0 | 0 | 0 | 0 | 0 | 0 | 0 | 0 | 0 | 0 | 0 | 0 |
| LMTK2 (UniProt Q8IWU2) | 0 | 3 | 0 | 0 | 0 | 0 | 0 | 0 | 0 | 0 | 0 | 0 | 0 | 0 | 0 | 0 | 0 | 2 | 0 | 0 | 0 |
| RPS6KA1 (UniProt Q15418) | 0 | 0 | 0 | 0 | 0 | 0 | 0 | 0 | 0 | 0 | 0 | 0 | 0 | 0 | 0 | 0 | 0 | 0 | 0 | 0 | 0 |
| EGFR (UniProt P00533) | 0 | 0 | 0 | 0 | 0 | 0 | 0 | 0 | 0 | 0 | 0 | 0 | 0 | 0 | 0 | 0 | 0 | 0 | 0 | 0 | 0 |
| RAF1_S257L (clone: RAF1_mut) (UniProt P04049) | 1 | 2 | 2 | 0 | 0 | 0 | 0 | 0 | 0 | 0 | 0 | 0 | 0 | 0 | 0 | 0 | 0 | 1 | 3 | 0 | 0 |
| ABL1 (UniProt P00519) | 0 | 3 | 0 | 0 | 0 | 0 | 0 | 0 | 4 | 0 | 0 | 0 | 0 | 0 | 4 | 0 | 0 | 0 | 0 | 0 | 0 |
| EGFR_L861Q (UniProt P00533) | 1 | 4 | 0 | 0 | 0 | 0 | 0 | 0 | 1 | 0 | 0 | 0 | 0 | 0 | 0 | 0 | 0 | 0 | 0 | 0 | 0 |
| GSK3A (UniProt P49840) | 1 | 0 | 0 | 0 | 0 | 0 | 0 | 0 | 0 | 0 | 0 | 0 | 0 | 0 | 0 | 0 | 0 | 0 | 0 | 0 | 0 |
| RIOK1 (UniProt Q9BRS2) | 0 | 2 | 0 | 0 | 0 | 0 | 0 | 0 | 0 | 0 | 0 | 0 | 0 | 0 | 0 | 0 | 0 | 0 | 0 | 0 | 0 |
| ZAK (UniProt Q9NYL2) | 0 | 0 | 0 | 0 | 0 | 0 | 0 | 0 | 0 | 0 | 0 | 0 | 0 | 0 | 0 | 0 | 0 | 0 | 0 | 0 | 0 |
| BLK (UniProt P51451) | 0 | 0 | 0 | 0 | 0 | 0 | 0 | 0 | 0 | 0 | 0 | 0 | 0 | 1 | 0 | 0 | 0 | 0 | 0 | 0 | 0 |
| AURKC (UniProt Q9UQB9) | 0 | 0 | 0 | 0 | 0 | 0 | 0 | 0 | 0 | 0 | 0 | 0 | 0 | 0 | 0 | 0 | 0 | 0 | 0 | 0 | 0 |
| MAP2K1 (UniProt Q02750) | 0 | 0 | 0 | 0 | 0 | 0 | 0 | 0 | 0 | 0 | 0 | 0 | 0 | 0 | 0 | 0 | 0 | 0 | 0 | 0 | 0 |
| MAP4K2 (UniProt Q12851) | 0 | 0 | 0 | 0 | 0 | 0 | 0 | 0 | 0 | 0 | 0 | 0 | 0 | 0 | 0 | 0 | 0 | 0 | 0 | 0 | 0 |

Part of the list above in a different format.
Target,number of time points [1],number of time points [2],number of time points [3],number of time points [4],number of time points [5],number of time points [6],number of time points [7],number of time points [8],number of time points [9],number of time points [10],number of time points [11],number of time points [12],number of time points [13],number of time points [14],number of time points [15],number of time points [16],number of time points [17],number of time points ([18]; 2.5 µM),number of time points ([18]; 10 µM),number of time points [19],number of time points [20]
RET (UniProt P07949),0,0,0,0,0,0,0,0,0,0,0,0,0,0,0,0,0,0,0,0,0
RIPK2 (UniProt O43353),0,0,0,0,0,0,0,0,0,0,0,0,0,0,0,0,0,1,1,0,0

Reference: the supplement of paper PMC12823440, “Inhibitors supercharge kinase turnover through native proteolytic circuits” (Nature, 2025)
